Assay results as given in paper PMC7966362.

Key:
[1] = target: T1, HA-tagged AE2 wild type (full length, mouse) (mouse) (UniProt P13808); experiment: co-IP; HEK 293T cells transfected with tagged constructs; lysis buffer 10 mM HEPES pH 7.4, 100 mM NaCl, 2 mM EDTA, 0.1% Triton X-100, 10 mM sodium fluoride; antibodies and Protein G overnight at 4 °C; immunoblot
T1 sequence: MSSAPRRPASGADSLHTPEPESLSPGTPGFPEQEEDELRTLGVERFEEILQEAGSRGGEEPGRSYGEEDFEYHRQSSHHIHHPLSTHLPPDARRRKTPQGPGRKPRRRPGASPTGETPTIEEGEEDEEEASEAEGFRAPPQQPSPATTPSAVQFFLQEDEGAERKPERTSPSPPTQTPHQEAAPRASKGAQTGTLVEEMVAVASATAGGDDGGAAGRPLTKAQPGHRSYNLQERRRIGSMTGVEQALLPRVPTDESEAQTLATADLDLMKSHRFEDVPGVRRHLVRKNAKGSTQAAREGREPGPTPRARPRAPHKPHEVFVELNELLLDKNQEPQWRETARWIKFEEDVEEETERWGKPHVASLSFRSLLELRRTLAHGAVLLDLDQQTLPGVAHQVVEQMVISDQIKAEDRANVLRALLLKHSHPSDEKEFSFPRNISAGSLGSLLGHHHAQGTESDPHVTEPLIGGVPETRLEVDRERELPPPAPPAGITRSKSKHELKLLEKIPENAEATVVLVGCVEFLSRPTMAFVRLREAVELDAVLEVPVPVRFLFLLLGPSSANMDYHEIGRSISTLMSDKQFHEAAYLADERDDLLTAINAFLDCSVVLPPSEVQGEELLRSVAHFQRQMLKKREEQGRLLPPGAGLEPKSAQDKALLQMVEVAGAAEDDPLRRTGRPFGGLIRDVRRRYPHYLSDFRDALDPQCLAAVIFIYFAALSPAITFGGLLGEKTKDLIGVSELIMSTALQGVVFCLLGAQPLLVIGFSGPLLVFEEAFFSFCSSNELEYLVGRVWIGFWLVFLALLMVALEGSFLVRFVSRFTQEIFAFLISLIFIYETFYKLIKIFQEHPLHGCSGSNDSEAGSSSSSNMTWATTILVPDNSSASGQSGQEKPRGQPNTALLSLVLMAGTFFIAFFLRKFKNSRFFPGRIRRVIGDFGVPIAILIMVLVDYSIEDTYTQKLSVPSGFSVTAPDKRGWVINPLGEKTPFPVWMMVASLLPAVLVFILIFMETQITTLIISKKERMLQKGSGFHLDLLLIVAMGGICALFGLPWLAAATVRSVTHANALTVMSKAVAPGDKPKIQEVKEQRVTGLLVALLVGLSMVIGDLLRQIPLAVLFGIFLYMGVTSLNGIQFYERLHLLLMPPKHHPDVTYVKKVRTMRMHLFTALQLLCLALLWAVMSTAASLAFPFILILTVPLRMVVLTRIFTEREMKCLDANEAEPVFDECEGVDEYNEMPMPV

[2] = target: T2, GST-tagged AE2-aa1-100 (mouse) (UniProt P13808); experiment: pull-down; GST fusion proteins of AE2 N-terminal parts on Glutathione Sepharose 4B incubated with lysate of HEK 293T cells expressing FLAG-tagged L-IRBIT, 4 h at 4 °C; immunoblot with anti-FLAG antibody; only the target purified
T2 sequence: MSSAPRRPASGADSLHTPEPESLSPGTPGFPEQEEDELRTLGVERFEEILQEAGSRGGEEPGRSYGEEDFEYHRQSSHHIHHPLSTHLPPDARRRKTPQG

[3] = target: T3, GST-tagged AE2-aa1-111 (mouse) (UniProt P13808); experiment: as above
T3 sequence: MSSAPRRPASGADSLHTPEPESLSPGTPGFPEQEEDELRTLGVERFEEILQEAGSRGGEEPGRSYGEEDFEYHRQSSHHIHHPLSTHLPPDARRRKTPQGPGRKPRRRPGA

[4] = target: T4, GST-tagged AE2-aa1-198 (mouse) (UniProt P13808); experiment: as above
T4 sequence: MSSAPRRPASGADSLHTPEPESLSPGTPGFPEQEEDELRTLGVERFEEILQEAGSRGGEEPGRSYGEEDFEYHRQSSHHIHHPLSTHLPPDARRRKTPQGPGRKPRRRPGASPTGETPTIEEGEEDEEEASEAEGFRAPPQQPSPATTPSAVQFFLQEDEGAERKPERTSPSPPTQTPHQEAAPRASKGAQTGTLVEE

[5] = target: T5, GST-tagged AE2-aa1-45 (mouse) (UniProt P13808); experiment: as above
T5 sequence: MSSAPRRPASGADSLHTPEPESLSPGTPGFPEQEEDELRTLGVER

[6] = target: T6, GST-tagged AE2-aa1-75 (mouse) (UniProt P13808); experiment: as above
T6 sequence: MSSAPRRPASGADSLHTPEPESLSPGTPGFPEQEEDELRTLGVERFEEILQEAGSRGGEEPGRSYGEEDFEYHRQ

[7] = target: T7, GST-tagged AE2-aa1-88 (mouse) (UniProt P13808); experiment: as above
T7 sequence: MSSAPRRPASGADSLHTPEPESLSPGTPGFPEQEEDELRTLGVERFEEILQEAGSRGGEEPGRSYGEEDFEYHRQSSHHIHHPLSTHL

[8] = target: T8, GST-tagged AE2-aa55-88 (mouse) (UniProt P13808); experiment: as above
T8 sequence: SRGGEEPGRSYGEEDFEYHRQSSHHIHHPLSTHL

- binding [1]: binds
- binding [2]: binds
- binding [3]: binds
- binding [4]: binds
- binding [5]: no binding
- binding [6]: no binding
- binding [7]: binds
- binding [8]: binds
Substance: FLAG-tagged L-IRBIT wild type (full length)

No constants are given. Whether binding was seen depends on the method and setting. Binding seen in cells or lysates may run through a third protein. For some assays here: Binding can be weak; no strength is given. Where a sequence is shown, tags or fusion partners need not be part of it.
